PubChem BioAssay AID504793 – Drosophila RNAi Screening Center – 2011

Aim: 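Genes required for cells to halt at G2/M after double-strand DNA breaks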 (primary screen)
Cell system: Drosophila S2R+ cells
Reagent: long dsRNA against Drosophila genes, about 0.25 µg dsRNA per well
Duration: 4 days of dsRNA, then 4 hours of drug before read-out
Conditions: doxorubicin 0.5 µM for 4 hours to cause double-strand breaks, in cells also given a low, harmless dose of dsRNA against nbs to sensitise the assay
Measurement: 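Per-well count of mitotic cells stained for phospho-histone H3 after doxorubicin exposure, used as mitotic index; counts are raw and not normalised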
Direction: mitotic cells: higher = more cells in mitosis, weaker G2 arrest
Active means: 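Genes are called active only when high mitotic counts were reproduced with independent dsRNAs and mitosis was checked for delay without damage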
Meaning of the calls: active = confirmed in follow-up tests; inactive = not confirmed
The deposit covers about 23,000 reagents; below is a random part of those with a known target gene and a result. In the full data, 62 (0.27%) are marked active. 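Calls come from follow-up tests whose scores are not deposited, so confirmed genes may have low counts here; counts are not normalised per plate.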 Raw values vary from plate to plate and are shown uncorrected. A plus sign joins genes that one reagent is predicted to hit. No sequences are given here.

no.	Target gene	amplicon	mitotic cells, replicate 1	mitotic cells, replicate 2	Outcome
1	Ugt36D1 (UDP-glycosyltransferase family 36 member D1)	DRSC02600	8		inactive
2	alpha-Est4 (alpha-Esterase-4)	DRSC12616	4		inactive
3	alpha-Est4 (alpha-Esterase-4)	DRSC27280	11		inactive
4	CG13075	DRSC09958	2		inactive
5	CG13075	DRSC28458	9		inactive
6	CG42560 + CG42559	DRSC21873	8		inactive
7	MFS14 (Major Facilitator Superfamily Transporter 14)	DRSC06524	11		inactive
8	MFS14 (Major Facilitator Superfamily Transporter 14)	DRSC29787	6		inactive
9	CG31819	DRSC01532	3		inactive
10	CG31819	DRSC27735	3		inactive
11	CG13876	DRSC08346	10		inactive
12	CG3942	DRSC15525	3		inactive
13	CG3942	DRSC26921	7		inactive
14	Mcr (Macroglobulin complement-related)	DRSC03366	12		inactive
15	AnxB9 (Annexin B9)	DRSC14111	7		inactive
16	AnxB9 (Annexin B9)	DRSC25715	6		inactive
17	CG12655	DRSC20678	8		inactive
18	Bx (Beadex)	DRSC23048	6		inactive
19	Bx (Beadex)	DRSC28506	7		inactive
20	Veneno	DRSC16537	9		inactive
21	CG9616	DRSC16518	10		inactive
22	CG9616	DRSC27905	7		inactive
23	CG34235 + CG30058 + CG34312	DRSC22142	8		inactive
24	ena (enabled)	DRSC05779	7		inactive
25	ena (enabled)	DRSC07610	5		inactive
26	ena (enabled)	DRSC25393	8		inactive
27	ohgt (ohgata)	DRSC15521	3		inactive
28	ohgt (ohgata)	DRSC30024	8		inactive
29	CG16704	DRSC00475			inactive
30	CG12835 (retired record)	DRSC06181	5		inactive
31	CG12835 (retired record)	DRSC27647	5		inactive
32	aust (australin)	DRSC02558	6		inactive
33	aust (australin)	DRSC26019	5		inactive
34	CG6656	DRSC16085	4		inactive
35	yki (yorkie)	DRSC04437	5		inactive
36	yki (yorkie)	DRSC28304	6		inactive
37	Cdc37 (Cell division cycle 37)	DRSC08648	1		inactive
38	Cdc37 (Cell division cycle 37)	DRSC27723	3		inactive
39	CG33477	DRSC22934	9		inactive
40	Datp (Diadenosine tetraphosphatase)	DRSC01102	9		inactive
41	HemK1 (HemK methyltransferase 1)	DRSC03253	9		inactive
42	Fib (Fibrillarin)	DRSC04614	4		inactive
43	CG9967	DRSC00742	8	8	inactive
44	CG9967	DRSC25344	4		inactive
45	Jhbp13 (Juvenile hormone binding protein 13)	DRSC02913	2		inactive
46	Obp18a (Odorant-binding protein 18a)	DRSC19736	2		inactive
47	CG3597	DRSC00617	4		inactive
48	CG3597	DRSC24376	6		inactive
49	Traf4 (TNF-receptor-associated factor 4)	DRSC00445	1		inactive
50	Traf4 (TNF-receptor-associated factor 4)	DRSC00794	9		inactive
51	NimB1 (Nimrod B1)	DRSC01880	5		inactive
52	Nckx30C	DRSC02686	7		inactive
53	Nckx30C	DRSC02687	5		inactive
54	Nckx30C	DRSC02688	2		inactive
55	Nckx30C	DRSC02689	6		inactive
56	MED27 (Mediator complex subunit 27)	DRSC12205	11		inactive
57	jb (jean-baptiste)	DRSC20531	11		inactive
58	Tm1 (Tropomyosin 1)	DRSC13082	6		inactive
59	Tm1 (Tropomyosin 1)	DRSC13083	11		inactive
60	Tm1 (Tropomyosin 1)	DRSC16886	2		inactive
61	Tm1 (Tropomyosin 1)	DRSC25249	1		inactive
62	Tm1 (Tropomyosin 1)	DRSC39135	5		inactive
63	CG42486 + CG14933	DRSC26454	8		inactive
64	CG11656	DRSC14338	3		inactive
65	CG11656	DRSC28955	1		inactive
66	CG9331	DRSC03206	5		inactive
67	CG9331	DRSC28815	3		inactive
68	Trax (Translin associated factor X)	DRSC15709	7		inactive
69	CG31019	DRSC13994	4		inactive
70	CG31019	DRSC26555	5		inactive
71	Dnali1 (Dynein axonemal light intermediate chain 1)	DRSC16158	5		inactive
72	Gba1b (Glucocerebrosidase 1b)	DRSC21531	12		inactive
73	retinin	DRSC09940			inactive
74	retinin	DRSC25734	9		inactive
75	mRpS29 (mitochondrial ribosomal protein S29)	DRSC04398	5		inactive
76	mRpS29 (mitochondrial ribosomal protein S29)	DRSC27790	10		inactive

10 entries from above, set out differently.
Target gene | amplicon | mitotic cells, replicate 1 | mitotic cells, replicate 2 | Outcome
CG11656 | DRSC28955 | 1 | – | inactive
CG9331 | DRSC03206 | 5 | – | inactive
CG9331 | DRSC28815 | 3 | – | inactive
Trax (Translin associated factor X) | DRSC15709 | 7 | – | inactive
CG31019 | DRSC13994 | 4 | – | inactive
CG31019 | DRSC26555 | 5 | – | inactive
Dnali1 (Dynein axonemal light intermediate chain 1) | DRSC16158 | 5 | – | inactive
Gba1b (Glucocerebrosidase 1b) | DRSC21531 | 12 | – | inactive
retinin | DRSC09940 | – | – | inactive
retinin | DRSC25734 | 9 | – | inactive
